The target of this assay is T1, Interferon-induced transmembrane protein 1 (IFITM1) (mouse (endogenous in NIH-3T3)) (UniProt Q9D103).
T1 sequence: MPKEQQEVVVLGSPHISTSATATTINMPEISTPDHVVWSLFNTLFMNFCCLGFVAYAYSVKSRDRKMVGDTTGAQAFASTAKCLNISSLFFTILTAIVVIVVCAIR
Description: co-IP; NIH-3T3 lysate; anti-IFITM1 antibody or IgG on magnetic beads; eluate analysed by SDS-PAGE and blot for CBR4.

No constants are given. Whether binding was seen depends on the method and setting. In cells and extracts the contact can be indirect. Some binding calls cover weakened binding; strength is not graded here.

B1: CBR4 (protein, UniProt Q91VT4 1-236)
chain: MDKVCAVFGGSRGIGRAVAQLMAQKGYRLAIVSRNLEVAKVTAGELGGNHLAFRCDVAKEQDVQSTFQEMEKHLGPVNFLVNAAGINRDSLLVRTKTEDMISQLHTNLLGSMLTCKAAMKTMIQQGGSIVNVGSIIGLKGNVGQSAYSATKGGLVGFSRSLAKEVARKKIRVNVVAPGFIRTDMTRHLKEEHFKKNIPLGRFGETLEVAHAVVFLLESPYITGHVLIVDGGLQLTV
Take B1: the binding entry is “binds”.

For the origin of these results see article PMC12440877.
